The text below walks through data of publication PMC6488673, “Crystal structure of the Lin28-interacting module of human terminal uridylyltransferase that regulates let-7 expression”.

Amino acid sequences for entries named in this document (tags omitted). A change or cut given only in a name is not applied to a line headed by its entry.
UniProt Q5TAX3: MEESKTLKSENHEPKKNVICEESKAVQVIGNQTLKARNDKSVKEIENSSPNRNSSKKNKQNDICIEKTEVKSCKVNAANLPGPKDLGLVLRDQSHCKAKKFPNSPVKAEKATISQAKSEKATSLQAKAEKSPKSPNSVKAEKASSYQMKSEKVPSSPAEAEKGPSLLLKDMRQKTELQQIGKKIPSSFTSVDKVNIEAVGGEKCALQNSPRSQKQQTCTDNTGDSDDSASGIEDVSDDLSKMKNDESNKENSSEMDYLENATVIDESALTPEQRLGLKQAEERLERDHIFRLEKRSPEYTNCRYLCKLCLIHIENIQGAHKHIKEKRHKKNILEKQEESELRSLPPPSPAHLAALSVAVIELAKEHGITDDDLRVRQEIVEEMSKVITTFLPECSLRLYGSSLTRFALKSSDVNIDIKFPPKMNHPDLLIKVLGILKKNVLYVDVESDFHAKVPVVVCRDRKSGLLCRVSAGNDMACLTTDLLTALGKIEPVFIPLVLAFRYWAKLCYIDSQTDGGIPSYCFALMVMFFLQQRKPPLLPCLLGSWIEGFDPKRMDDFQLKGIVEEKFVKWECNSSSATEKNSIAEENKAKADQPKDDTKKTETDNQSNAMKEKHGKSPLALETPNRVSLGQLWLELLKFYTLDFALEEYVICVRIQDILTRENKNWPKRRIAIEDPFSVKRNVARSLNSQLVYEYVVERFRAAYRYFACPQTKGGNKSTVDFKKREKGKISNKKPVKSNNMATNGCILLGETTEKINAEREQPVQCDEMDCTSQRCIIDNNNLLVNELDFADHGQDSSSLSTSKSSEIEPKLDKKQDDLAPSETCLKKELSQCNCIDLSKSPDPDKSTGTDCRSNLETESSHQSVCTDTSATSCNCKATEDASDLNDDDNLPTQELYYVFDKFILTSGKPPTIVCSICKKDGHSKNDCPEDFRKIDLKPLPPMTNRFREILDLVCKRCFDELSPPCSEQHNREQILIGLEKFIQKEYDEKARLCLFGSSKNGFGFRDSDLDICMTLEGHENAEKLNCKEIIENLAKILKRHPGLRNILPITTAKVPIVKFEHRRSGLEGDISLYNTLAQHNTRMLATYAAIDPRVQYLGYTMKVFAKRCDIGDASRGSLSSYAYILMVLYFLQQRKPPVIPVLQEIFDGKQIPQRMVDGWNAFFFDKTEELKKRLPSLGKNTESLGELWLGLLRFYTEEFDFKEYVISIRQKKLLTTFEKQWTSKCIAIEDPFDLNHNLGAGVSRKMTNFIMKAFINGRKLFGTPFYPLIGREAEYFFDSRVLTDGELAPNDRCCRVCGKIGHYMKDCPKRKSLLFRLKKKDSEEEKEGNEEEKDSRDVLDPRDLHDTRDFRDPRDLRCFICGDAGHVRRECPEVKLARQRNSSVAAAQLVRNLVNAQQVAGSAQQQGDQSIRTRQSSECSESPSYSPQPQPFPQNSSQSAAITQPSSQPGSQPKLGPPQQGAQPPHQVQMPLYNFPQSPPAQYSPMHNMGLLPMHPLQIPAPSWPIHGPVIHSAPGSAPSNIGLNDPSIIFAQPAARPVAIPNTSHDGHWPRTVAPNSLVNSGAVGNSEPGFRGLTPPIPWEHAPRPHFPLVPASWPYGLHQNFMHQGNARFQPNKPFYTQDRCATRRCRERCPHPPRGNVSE

For this assay, the target named is T1, recombinant human Lin28A (residues 1-209) (human) (UniProt Q9H9Z2).
T1 sequence: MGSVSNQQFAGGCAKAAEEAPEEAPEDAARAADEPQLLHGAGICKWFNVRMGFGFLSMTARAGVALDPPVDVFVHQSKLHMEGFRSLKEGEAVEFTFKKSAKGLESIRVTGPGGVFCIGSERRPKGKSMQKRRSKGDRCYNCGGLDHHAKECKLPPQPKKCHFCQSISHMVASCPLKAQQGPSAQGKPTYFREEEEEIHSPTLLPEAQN
As to the kind of experiment: condition: 300 nM hTUT4 protein, 300 nM hLin28A, 100 nM pre-let-7a-1; native gel or EMSA; 300 nM recombinant hTUT4 protein with 100 nM pre-let-7a-1, with or without 300 nM recombinant hLin28A; 50 mM Tris-HCl pH 8.5, 100 mM NaCl, 10 mM MgCl2, 10 mM β-mercaptoethanol, 10% glycerol, 10 min at room temperature; native polyacrylamide gel stained with ethidium bromide; both purified. Background: In EMSA bound probe runs differently from free probe, usually more slowly.

No constants are given. Whether binding was seen depends on the method and setting.

In the case of “hTUT4_N_ΔZ (human TUT4 residues 334-723) (from UniProt Q5TAX3) (domain or fragment)”, the binding entry is on record as “no binding”.
